According to PMC8989981, “Negative feedback of SNRK to circ-SNRK regulates cardiac function post-myocardial infarction” (Cell Death and Differentiation, 2021):
Results are given in words; binding and its absence hold for the method and conditions named. Binding seen in cells or lysates may run through a third protein. Some entries that bind do so weakly or less than the wild type.

Molecular target: T1, SNRK (sucrose nonfermenting 1-related kinase) (rat (endogenous in NRCMs)) (UniProt Q63553)
T1 sequence: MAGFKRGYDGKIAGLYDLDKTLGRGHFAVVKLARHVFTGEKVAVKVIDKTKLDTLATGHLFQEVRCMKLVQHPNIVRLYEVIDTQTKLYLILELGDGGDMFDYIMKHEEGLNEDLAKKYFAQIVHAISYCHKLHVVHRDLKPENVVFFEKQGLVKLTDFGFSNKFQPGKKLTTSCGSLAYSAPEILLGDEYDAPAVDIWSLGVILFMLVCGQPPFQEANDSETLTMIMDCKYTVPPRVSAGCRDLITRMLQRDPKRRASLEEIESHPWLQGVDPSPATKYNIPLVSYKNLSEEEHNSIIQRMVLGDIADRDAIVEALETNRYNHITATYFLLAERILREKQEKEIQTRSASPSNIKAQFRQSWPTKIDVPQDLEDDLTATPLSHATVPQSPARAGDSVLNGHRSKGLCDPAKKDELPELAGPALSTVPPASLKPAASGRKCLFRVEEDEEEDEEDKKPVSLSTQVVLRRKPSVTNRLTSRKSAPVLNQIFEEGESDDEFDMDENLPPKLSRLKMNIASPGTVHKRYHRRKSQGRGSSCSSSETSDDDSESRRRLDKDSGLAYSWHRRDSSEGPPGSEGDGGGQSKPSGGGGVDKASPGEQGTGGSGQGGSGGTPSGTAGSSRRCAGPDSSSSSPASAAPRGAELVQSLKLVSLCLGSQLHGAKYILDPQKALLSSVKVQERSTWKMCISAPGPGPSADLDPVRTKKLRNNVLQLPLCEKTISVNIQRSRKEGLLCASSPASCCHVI
Assay: co-IP; proteins of NRCMs (neonatal rat cardiomyocytes); precipitation of SNRK, NOVA1 or activated Caspase 3 and immunoblot of the partner; no co-IP method is described

binding: binds
B1: NOVA1 (NOVA alternative splicing regulator 1) (natural protein, rat (endogenous in NRCMs), UniProt Q80WA4 1-474, looked up)
chain: MAAAPIQQNGTHTGVPIDLDPPDSRKRPLEAPPEAGSTKRTNTGEDGQYFLKVLIPSYAAGSIIGKGGQTIVQLQKETGATIKLSKSKDFYPGTTERVCLIQGTIEALNAVHGFIAEKIREMPQNVAKTEPVSILQPQTTVNPDRIKQVKIIVPNSTAGLIIGKGGATVKAIMEQSGAWVQLSQKPDGINLQERVVTVSGEPEQNRKAVELIIQKIQEDPQSGSCLNISYANVTGPVANSNPTGFPYANTAEVLPTAAAAAGLLGHANLAGVAAFPAVLSGFTGNDLVAITSALNTLASYGYNLNTLGLGLSQAAATGALAAAAASANPAAAAANLLATYASEASASGSTAGGTAGTFALGSLAAATAATNGYFGAASPLAASAILGTEKSTDGSKDVVEIAVPENLVGAILGKGGKTLVEYQELTGARIQISKKGEFVPGTRNRKVTITGTPAATQAAQYLITQRITYEQGVR
notes: NOVA1 (NOVA alternative splicing regulator 1), rat, as present in neonatal rat cardiomyocytes; also called protein NOVA1; source: endogenous, NRCMs (neonatal rat cardiomyocytes), in lysate / total protein
